The target of assay [1] is T1, GFP-SNX17 (wild type, N-terminal GFP) (UniProt Q15036).
T1 sequence: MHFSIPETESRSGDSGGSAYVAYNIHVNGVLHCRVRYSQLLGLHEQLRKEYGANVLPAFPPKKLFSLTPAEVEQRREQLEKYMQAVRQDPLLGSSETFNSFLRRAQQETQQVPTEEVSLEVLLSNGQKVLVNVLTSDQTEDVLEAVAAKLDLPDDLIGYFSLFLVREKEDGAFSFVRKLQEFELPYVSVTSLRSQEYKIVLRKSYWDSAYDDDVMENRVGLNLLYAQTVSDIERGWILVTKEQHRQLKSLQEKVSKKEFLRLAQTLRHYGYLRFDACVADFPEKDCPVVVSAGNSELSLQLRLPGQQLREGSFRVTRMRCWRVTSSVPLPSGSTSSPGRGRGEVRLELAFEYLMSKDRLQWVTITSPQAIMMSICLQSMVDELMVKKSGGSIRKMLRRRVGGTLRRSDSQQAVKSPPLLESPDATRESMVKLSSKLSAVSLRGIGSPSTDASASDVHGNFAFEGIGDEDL
Put plainly: co-IP.

A further assay deals with GFP-VPS26C (UniProt O14972). Briefly: co-IP.
Assay [2] deals with full-length VPS26C (recombinant) (UniProt O14972). Put plainly: ITC.

The record followed here is article doi:10.1101/2021.07.29.454387 (bioRxiv, 2021).

These are yes or no findings as the source states them, for the method shown. For part of these data: In cells and extracts the contact can be indirect. Some entries that bind do so weakly or less than the wild type. For part of these data: Where a sequence is shown, tags or fusion partners need not be part of it.

Consider “endogenous PDLIM7 (from UniProt Q9NR12 1-457)”, for which the binding result in assay [1] is “binds”; with GFP-VPS26C it was “no binding”.
For the molecule HGNFAFEGIGDEDL [SNX17 C-terminal peptide (457-470) used for ITC], in assay [2], the binding result is on record as “no binding”.
